{
  "source": "patent US9376449B2",
  "about": "“Indole carboxamide derivative” (Astellas Pharma Inc., priority 2012, dated 2016)",
  "origin": "cited, not measured here",
  "conditions": "drugs known to have a low CNS penetration; literature; cited from earlier work",
  "note": "Some of these results come from one statement about several compounds together.",
  "data": [
    {"smiles": "Cc1ccc(NC(=O)c2ccc(CN3CCN(C)CC3)cc2)cc1Nc1nccc(-c2cccnc2)n1", "note": "[Imatinib]", "values": [
      {"measurement": "Kp,uu,CSF", "result": "≤ 0.11"}
    ]}
  ]
}
